Results taken from the supplement of paper PMC10727501.
This is one part of the list. Repeats in this data set agree poorly, so a single value says little.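 Free-swimming zebrafish larvae were assessed for O-bend response probability to dark flashes (naive: first five; training: remaining flashes across four 60-flash blocks; test: later 60-flash block) and for OMR turning toward alternating leftward/rightward LED motion. Six treated larvae were compared against sixty 0.1% DMSO controls; hits required |SSMD|≥2.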

Assays:
Conditions in all cases: 10 µM; pre-incubation: 30-90 min
[1] = system: Danio rerio larvae (5 dpf, TLF); test: OMR-Perf (SSMD vs DMSO vehicle); higher = higher than vehicle (e.g. higher dark-flash O-bend response probability, or better optomotor performance)
[2] = system: Danio rerio larvae (5 dpf, TLF); test: Prob-Test (SSMD vs DMSO vehicle); higher = higher than vehicle (e.g. higher dark-flash O-bend response probability, or better optomotor performance)
[3] = system: Danio rerio larvae (5 dpf, TLF); test: Prob-Naive (SSMD vs DMSO vehicle); higher = higher than vehicle (e.g. higher dark-flash O-bend response probability, or better optomotor performance)
[4] = system: Danio rerio larvae (5 dpf, TLF); test: Prob-Train (SSMD vs DMSO vehicle); higher = higher than vehicle (e.g. higher dark-flash O-bend response probability, or better optomotor performance)

Structure (SMILES) | OMR-Perf [1] | Prob-Test [2] | Prob-Naive [3] | Prob-Train [4]
C/C(=C\c1ccc(C(=O)O)cc1)c1ccc2c(c1)C(C)(C)CCC2(C)C [TTNPB (Arotinoid Acid)] | -0.276 | 0.11 | -0.433 | 0.0615
C[C@H]1[C@H](O)O[C@H]2O[C@@]3(C)CC[C@H]4[C@@H](C)CC[C@@H]1[C@@]24OO3 [Dihydroartemisinin (DHA)] | -0.784 | -0.128 | 0.0956 | -0.247
NC(=O)N1CCC(CC(=O)N2CCC([C@H]3c4ncc(Br)cc4CCc4cc(Cl)cc(Br)c43)CC2)CC1 [Lonafarnib] | -0.792 | -1.39 | 0.302 | -0.901
C[C@H]1C(=O)O[C@H]2[C@@H](O)C34[C@@H]5C[C@@H](C(C)(C)C)C36[C@@H](OC(=O)[C@H]6O)O[C@]4(C(=O)O5)[C@@]12O (stereo partly specified) [Ginkgolide B] | -0.536 | 0.336 | 0.233 | -0.0617
